Drawing on PMC12629989, this text covers binding for one substance.

Protein sequences, listed by entry. Tags and fused reporters are not part of them.
UniProt Q9QZL0: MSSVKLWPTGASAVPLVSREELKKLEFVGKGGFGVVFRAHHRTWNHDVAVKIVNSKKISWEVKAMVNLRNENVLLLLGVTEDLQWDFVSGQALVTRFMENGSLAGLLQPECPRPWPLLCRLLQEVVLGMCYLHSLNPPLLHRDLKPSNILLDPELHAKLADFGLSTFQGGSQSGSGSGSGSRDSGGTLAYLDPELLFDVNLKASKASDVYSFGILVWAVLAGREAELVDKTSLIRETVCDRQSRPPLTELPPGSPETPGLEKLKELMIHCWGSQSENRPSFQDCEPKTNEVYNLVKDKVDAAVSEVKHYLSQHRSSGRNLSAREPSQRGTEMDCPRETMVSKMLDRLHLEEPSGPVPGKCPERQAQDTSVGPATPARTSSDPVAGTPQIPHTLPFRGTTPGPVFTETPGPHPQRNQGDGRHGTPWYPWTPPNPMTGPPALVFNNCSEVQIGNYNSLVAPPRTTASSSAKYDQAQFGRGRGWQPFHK

These are yes or no findings as the source states them, for the method shown. In cells and extracts the contact can be indirect. Some results given as binding are weak or reduced against the parent protein; the word gives no strength.

The target of the experiment is T1, Z-DNA-binding protein 1 (mouse (endogenous in MEFs)) (UniProt Q9QY24).
T1 sequence: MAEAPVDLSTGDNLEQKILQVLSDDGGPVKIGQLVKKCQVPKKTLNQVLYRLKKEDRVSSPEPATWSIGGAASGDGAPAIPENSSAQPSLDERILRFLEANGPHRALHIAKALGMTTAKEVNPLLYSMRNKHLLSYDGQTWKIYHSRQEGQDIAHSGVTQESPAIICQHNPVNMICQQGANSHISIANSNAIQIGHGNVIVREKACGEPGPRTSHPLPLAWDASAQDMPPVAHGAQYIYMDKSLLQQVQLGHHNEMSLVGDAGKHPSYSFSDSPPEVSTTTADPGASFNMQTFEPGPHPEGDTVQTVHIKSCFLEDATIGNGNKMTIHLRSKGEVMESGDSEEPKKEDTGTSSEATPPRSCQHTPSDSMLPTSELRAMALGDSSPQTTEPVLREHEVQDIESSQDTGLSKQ
Put plainly: co-IP; anti-ZBP1 antibody on G-Sepharose beads, lysates of immortalized Mlkl-/-, Fadd-/-Mlkl-/- and Casp8-/-Mlkl-/- MEFs, basal or treated with DMXAA, C-178, TNF, Z-VAD-FMK and BV6 for 48 h; overnight at 4 °C; washes with 150 mM NaCl, Tris-HCl pH 7.4, 5% glycerol, 0.5% Triton X-100; immunoblot. A general note: Immunoblotting shows a protein as a band on a membrane.

In the case of “receptor-interacting serine/threonine-protein kinase 3 (from UniProt Q9QZL0 1-486)”, the binding entry was “binds”.
